The values below come from PMC7970304, “The Effects of Apelin and Elabela Ligands on Apelin Receptor Distinct Signaling Profiles” (Frontiers in Pharmacology, 2021).

Protein sequences, listed by entry. Tags and fused reporters are not part of them.
UniProt P35414: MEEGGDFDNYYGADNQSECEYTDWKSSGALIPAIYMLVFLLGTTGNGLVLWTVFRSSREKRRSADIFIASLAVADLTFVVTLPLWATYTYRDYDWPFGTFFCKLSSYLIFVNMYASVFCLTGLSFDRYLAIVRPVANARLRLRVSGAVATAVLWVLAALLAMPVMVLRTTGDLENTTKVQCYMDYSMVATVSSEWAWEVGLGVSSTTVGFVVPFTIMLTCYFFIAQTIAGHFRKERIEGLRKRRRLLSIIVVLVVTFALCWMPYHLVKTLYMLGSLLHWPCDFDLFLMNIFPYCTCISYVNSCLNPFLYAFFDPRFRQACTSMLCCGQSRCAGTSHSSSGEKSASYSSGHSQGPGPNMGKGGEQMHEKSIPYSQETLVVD
UniProt P63010: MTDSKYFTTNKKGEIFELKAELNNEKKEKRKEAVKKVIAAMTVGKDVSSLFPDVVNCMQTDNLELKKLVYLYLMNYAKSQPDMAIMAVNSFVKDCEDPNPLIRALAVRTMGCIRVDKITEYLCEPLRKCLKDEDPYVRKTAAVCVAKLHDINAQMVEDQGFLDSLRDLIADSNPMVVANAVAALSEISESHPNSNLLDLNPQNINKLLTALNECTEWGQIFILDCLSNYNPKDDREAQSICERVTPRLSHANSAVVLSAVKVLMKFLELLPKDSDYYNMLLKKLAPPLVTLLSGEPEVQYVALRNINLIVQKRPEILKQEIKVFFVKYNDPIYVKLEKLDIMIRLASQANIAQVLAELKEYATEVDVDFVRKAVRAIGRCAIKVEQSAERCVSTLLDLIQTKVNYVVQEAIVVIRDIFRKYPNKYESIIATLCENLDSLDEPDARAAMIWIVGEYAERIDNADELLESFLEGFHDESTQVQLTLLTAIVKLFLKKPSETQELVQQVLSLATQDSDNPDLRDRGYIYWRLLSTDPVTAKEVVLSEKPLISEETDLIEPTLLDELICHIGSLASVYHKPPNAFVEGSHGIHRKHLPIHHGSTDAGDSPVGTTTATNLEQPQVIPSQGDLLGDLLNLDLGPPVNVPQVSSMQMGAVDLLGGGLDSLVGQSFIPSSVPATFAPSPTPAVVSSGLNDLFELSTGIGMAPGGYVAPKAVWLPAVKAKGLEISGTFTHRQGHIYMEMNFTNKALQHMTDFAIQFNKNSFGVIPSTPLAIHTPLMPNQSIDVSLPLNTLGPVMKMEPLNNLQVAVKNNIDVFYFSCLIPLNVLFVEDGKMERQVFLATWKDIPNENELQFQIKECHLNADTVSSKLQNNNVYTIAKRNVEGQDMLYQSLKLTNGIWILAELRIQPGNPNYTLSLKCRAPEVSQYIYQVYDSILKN
UniProt P34947: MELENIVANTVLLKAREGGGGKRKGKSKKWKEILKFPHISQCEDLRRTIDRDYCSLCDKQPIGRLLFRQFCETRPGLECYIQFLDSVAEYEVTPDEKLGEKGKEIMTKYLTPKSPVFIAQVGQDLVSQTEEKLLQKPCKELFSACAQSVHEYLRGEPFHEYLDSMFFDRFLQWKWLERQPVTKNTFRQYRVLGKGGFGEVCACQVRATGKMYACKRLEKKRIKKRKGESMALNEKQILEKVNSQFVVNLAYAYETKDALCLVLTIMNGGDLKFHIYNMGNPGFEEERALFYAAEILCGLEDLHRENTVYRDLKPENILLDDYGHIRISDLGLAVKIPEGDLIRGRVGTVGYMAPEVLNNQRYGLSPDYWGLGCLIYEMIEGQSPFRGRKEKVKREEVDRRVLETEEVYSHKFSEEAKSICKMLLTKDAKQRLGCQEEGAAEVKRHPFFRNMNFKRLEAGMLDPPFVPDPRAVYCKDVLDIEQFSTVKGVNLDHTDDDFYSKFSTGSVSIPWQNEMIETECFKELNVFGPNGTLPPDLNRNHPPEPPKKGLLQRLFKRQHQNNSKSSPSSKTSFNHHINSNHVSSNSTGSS
UniProt P32121: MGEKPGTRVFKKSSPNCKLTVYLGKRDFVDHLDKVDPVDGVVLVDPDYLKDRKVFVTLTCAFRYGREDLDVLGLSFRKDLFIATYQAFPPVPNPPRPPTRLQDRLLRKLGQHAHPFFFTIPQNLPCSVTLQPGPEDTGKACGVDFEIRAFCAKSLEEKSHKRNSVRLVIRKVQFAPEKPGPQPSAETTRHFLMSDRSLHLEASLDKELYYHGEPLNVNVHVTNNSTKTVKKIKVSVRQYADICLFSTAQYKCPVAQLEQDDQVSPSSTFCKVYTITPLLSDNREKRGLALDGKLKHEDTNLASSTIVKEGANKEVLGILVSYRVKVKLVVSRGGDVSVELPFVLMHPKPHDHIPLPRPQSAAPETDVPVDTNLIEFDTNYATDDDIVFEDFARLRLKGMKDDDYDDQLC
UniProt P49407: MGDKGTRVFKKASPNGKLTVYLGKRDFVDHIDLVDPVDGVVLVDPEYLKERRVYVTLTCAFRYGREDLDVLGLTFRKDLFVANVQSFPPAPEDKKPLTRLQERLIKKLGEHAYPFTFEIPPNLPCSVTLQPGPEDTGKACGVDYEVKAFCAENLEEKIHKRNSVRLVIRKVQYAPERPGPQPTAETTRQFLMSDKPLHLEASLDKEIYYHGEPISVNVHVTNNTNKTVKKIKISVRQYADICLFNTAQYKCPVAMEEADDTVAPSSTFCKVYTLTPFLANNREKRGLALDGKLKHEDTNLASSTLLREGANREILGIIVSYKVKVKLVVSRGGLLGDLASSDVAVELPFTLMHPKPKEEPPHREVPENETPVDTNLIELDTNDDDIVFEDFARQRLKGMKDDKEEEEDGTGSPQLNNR

These are yes or no findings as the source states them, for the method shown. Binding seen in cells or lysates may run through a third protein. Some entries that bind do so weakly or less than the wild type.

In test [1] the target is APJ-Renilla luciferase (Rluc) (UniProt P35414). The test is described as follows: FRET or BRET; BRET in living HEK293 cells transiently co-transfected with APJ-Rluc and GRK2-GFP2 or GRK5-GFP2; stimulated with the six peptide ligands; time and dose-response curves; coelenterazine h 5 μM. A general note: In BRET a luciferase serves as donor, and the signal depends on an acceptor being close.

In test [2] the target is β2-adaptin EYFP (AP2, β2 subunit of the clathrin adaptor) (UniProt P63010). The test is described as follows: FRET or BRET; BRET in living HEK293 cells co-transfected with APJ, β-arrestin 1-Rluc or β-arrestin 2-Rluc, and β2-adaptin-EYFP; stimulated with the six peptide ligands; time and dose-response curves, read at 30 min.
The target in another test is APJ-Venus (UniProt P35414). The test is described as follows: FRET or BRET; BRET in living HEK293 cells transiently co-transfected with APJ-Venus and β-arrestin1-Rluc or β-arrestin2-Rluc; stimulated with the six peptide ligands; time and dose-response curves.

In the case of “GRK5-GFP2 (from UniProt P34947 1-590) (enzyme)”, the binding entry in test [1] was “binds”. For the substance “β-arrestin2-Rluc (from UniProt P32121 1-409)”, the binding result in test [2] is listed as “binds”.

Consider “β-arrestin1-Rluc (from UniProt P49407 1-418)”, for which the binding result (in test [2]; with APJ-Venus) was “binds” in each case.
